Results deposited as PubChem BioAssay AID1259315 (Drosophila RNAi Screening Center, 2017)

- Assay: 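Fly genes whose loss alters cell survival under toxic zinc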 (primary screen)
- Cells: Drosophila S2R+ cells
- Reagents: long dsRNA against Drosophila genes
- Time to read-out: 5 days (4 days knock-down, then 1 day with zinc)
- Treatment: zinc chloride added to 15 mM final for 1 day
- Detection: 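Luminescent measure of total cellular ATP as a survival proxy, read after 4 days of knock-down plus 1 day in 15 mM zinc chloride; z-score averaged across two replicate plates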
- Direction: mean ATP z-score: higher = more ATP, more cells surviving zinc
- Hit rule: 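a reagent is active if its z-score lies beyond 1.5 in either direction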
In all, the deposit lists 418 reagents; below is a part drawn at random. Over the whole deposit, 17 (4.1%) were called active. 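z-scores average two replicate plates; all hits raised ATP and none lowered it.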 No sequences are given here. Not stated in the record: the amount of reagent.

{"gene knocked down": "CG5065", "PubChem SID": "SID104186704", "mean ATP z-score": -0.204, "Outcome": "inactive"}
{"gene knocked down": "Tsp42Ea", "PubChem SID": "SID104184774", "mean ATP z-score": -0.0318, "Outcome": "inactive"}
{"gene knocked down": "Tsp42Ea", "PubChem SID": "SID104186584", "mean ATP z-score": 0.0369, "Outcome": "inactive"}
{"gene knocked down": "AP-1sigma", "PubChem SID": "SID104195691", "mean ATP z-score": -0.357, "Outcome": "inactive"}
{"gene knocked down": "AP-1sigma", "PubChem SID": "SID104217890", "mean ATP z-score": -0.169, "Outcome": "inactive"}
{"gene knocked down": "CG7408", "PubChem SID": "SID104190633", "mean ATP z-score": -0.211, "Outcome": "inactive"}
{"gene knocked down": "Pex2", "PubChem SID": "SID104190562", "mean ATP z-score": -0.184, "Outcome": "inactive"}
{"gene knocked down": "Pex2", "PubChem SID": "SID104215886", "mean ATP z-score": -0.368, "Outcome": "inactive"}
{"gene knocked down": "ScpX", "PubChem SID": "SID104183222", "mean ATP z-score": -0.279, "Outcome": "inactive"}
{"gene knocked down": "Vps33B", "PubChem SID": "SID104195514", "mean ATP z-score": -0.218, "Outcome": "inactive"}
{"gene knocked down": "Vps33B", "PubChem SID": "SID104212933", "mean ATP z-score": -0.167, "Outcome": "inactive"}
{"gene knocked down": "Dci", "PubChem SID": "SID104188152", "mean ATP z-score": -0.243, "Outcome": "inactive"}
{"gene knocked down": "Dci", "PubChem SID": "SID104207473", "mean ATP z-score": -0.376, "Outcome": "inactive"}
{"gene knocked down": "Vha68-3", "PubChem SID": "SID104182601", "mean ATP z-score": -0.22, "Outcome": "inactive"}
{"gene knocked down": "Vha68-3", "PubChem SID": "SID104204286", "mean ATP z-score": -0.194, "Outcome": "inactive"}
{"gene knocked down": "Gal", "PubChem SID": "SID104182926", "mean ATP z-score": 0.434, "Outcome": "inactive"}
{"gene knocked down": "Gal", "PubChem SID": "SID104203263", "mean ATP z-score": -0.239, "Outcome": "inactive"}
{"gene knocked down": "CG15534", "PubChem SID": "SID104194862", "mean ATP z-score": -0.225, "Outcome": "inactive"}
{"gene knocked down": "CG15534", "PubChem SID": "SID104204977", "mean ATP z-score": -0.087, "Outcome": "inactive"}
{"gene knocked down": "Pex12", "PubChem SID": "SID104180414", "mean ATP z-score": 4.12, "Outcome": "active"}
{"gene knocked down": "Pex12", "PubChem SID": "SID104205693", "mean ATP z-score": -0.462, "Outcome": "inactive"}
{"gene knocked down": "AP-1mu", "PubChem SID": "SID104193881", "mean ATP z-score": -0.452, "Outcome": "inactive"}
{"gene knocked down": "AP-1mu", "PubChem SID": "SID104204288", "mean ATP z-score": -0.614, "Outcome": "inactive"}
{"gene knocked down": "CG17597", "PubChem SID": "SID104182422", "mean ATP z-score": -0.223, "Outcome": "inactive"}
{"gene knocked down": "CG17597", "PubChem SID": "SID104203398", "mean ATP z-score": -0.303, "Outcome": "inactive"}
{"gene knocked down": "Ctns", "PubChem SID": "SID104194967", "mean ATP z-score": 2.26, "Outcome": "active"}
{"gene knocked down": "Ctns", "PubChem SID": "SID104211112", "mean ATP z-score": 1.41, "Outcome": "inactive"}
{"gene knocked down": "Ctns", "PubChem SID": "SID104217215", "mean ATP z-score": 2.67, "Outcome": "active"}
{"gene knocked down": "Vha55", "PubChem SID": "SID104204728", "mean ATP z-score": 0.235, "Outcome": "inactive"}
{"gene knocked down": "Vha55", "PubChem SID": "SID104209635", "mean ATP z-score": -0.0669, "Outcome": "inactive"}
{"gene knocked down": "Vha55", "PubChem SID": "SID104209636", "mean ATP z-score": -0.273, "Outcome": "inactive"}
{"gene knocked down": "CG9577", "PubChem SID": "SID104200485", "mean ATP z-score": -0.412, "Outcome": "inactive"}
{"gene knocked down": "CG9577", "PubChem SID": "SID104206235", "mean ATP z-score": -0.221, "Outcome": "inactive"}
{"gene knocked down": "g", "PubChem SID": "SID104200127", "mean ATP z-score": -0.162, "Outcome": "inactive"}
{"gene knocked down": "g", "PubChem SID": "SID104204662", "mean ATP z-score": -0.239, "Outcome": "inactive"}
{"gene knocked down": "Gba1b", "PubChem SID": "SID104201249", "mean ATP z-score": -0.119, "Outcome": "inactive"}
{"gene knocked down": "Had2", "PubChem SID": "SID104185763", "mean ATP z-score": 0.0687, "Outcome": "inactive"}
{"gene knocked down": "Had2", "PubChem SID": "SID104205499", "mean ATP z-score": 0.57, "Outcome": "inactive"}
{"gene knocked down": "CROT", "PubChem SID": "SID104206277", "mean ATP z-score": -0.376, "Outcome": "inactive"}
{"gene knocked down": "CROT", "PubChem SID": "SID104210616", "mean ATP z-score": -0.309, "Outcome": "inactive"}
{"gene knocked down": "CROT", "PubChem SID": "SID104210617", "mean ATP z-score": 0.0506, "Outcome": "inactive"}
{"gene knocked down": "CRAT", "PubChem SID": "SID104192315", "mean ATP z-score": -0.323, "Outcome": "inactive"}
{"gene knocked down": "CRAT", "PubChem SID": "SID104207921", "mean ATP z-score": -0.462, "Outcome": "inactive"}
{"gene knocked down": "Vha36-2", "PubChem SID": "SID104186086", "mean ATP z-score": -0.0158, "Outcome": "inactive"}
{"gene knocked down": "Vha36-2", "PubChem SID": "SID104207782", "mean ATP z-score": 0.0459, "Outcome": "inactive"}
{"gene knocked down": "Sgsh", "PubChem SID": "SID104194563", "mean ATP z-score": 0.104, "Outcome": "inactive"}
{"gene knocked down": "CG31661", "PubChem SID": "SID104180088", "mean ATP z-score": -0.109, "Outcome": "inactive"}
{"gene knocked down": "CG31661", "PubChem SID": "SID104207276", "mean ATP z-score": -0.369, "Outcome": "inactive"}
